Reference: publication PMC7909379
These are yes or no findings as the source states them, for the method shown. In cells and extracts the contact can be indirect. Some entries that bind do so weakly or less than the wild type.

Amino acid sequences for entries named in this document (tags omitted).
UniProt Q6Y1S1: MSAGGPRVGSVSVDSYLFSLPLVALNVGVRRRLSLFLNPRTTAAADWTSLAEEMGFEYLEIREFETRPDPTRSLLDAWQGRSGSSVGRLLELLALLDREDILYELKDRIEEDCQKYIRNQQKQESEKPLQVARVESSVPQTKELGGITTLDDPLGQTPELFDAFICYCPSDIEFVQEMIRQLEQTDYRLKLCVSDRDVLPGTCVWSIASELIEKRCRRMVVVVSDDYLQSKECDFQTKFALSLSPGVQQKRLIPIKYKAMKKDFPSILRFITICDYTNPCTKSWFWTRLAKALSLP

Biological target: myeloid differentiation primary response 88 (MyD88) (rat (endogenous in P rat nucleus accumbens)) (UniProt Q6Y1S1)
Assay: co-IP; protein extracts from the NAc of male and female P rats given 3α,5α-THP (15 mg/kg, IP, 30 min) or vehicle; immunoprecipitated with antibody to MyD88 or TRIF, immunoblotted for TLR4 or TLR7 (TLR7 in females only); normal IgG as immunoprecipitation control

binding: binds
B1: toll-like receptor 4 (TLR4) (receptor, UniProt Q9QX05 26-835)
chain: NPCIEVLPNITYQCMDQNLSKIPHDIPYSTKNLDLSFNPLKILRSYSFTNFSQLQWLDLSRCEIETIEDKAWHGLNQLSTLVLTGNPIKSFSPGSFSGLTNLENLVAVETKMTSLEGFHIGQLISLKKLNVAHNLIHSFKLPEYFSNLTNLEHVDLSYNYIQTISVKDLQFLRENPQVNLSLDLSLNPIDSIQAQAFQGIRLHELTLRSNFNSSNVLKMCLQNMTGLHVHRLILGEFKNERNLESFDRSVMEGLCNVSIDEFRLTYINHFSDDIYNLNCLANISAMSFTGVHIKHIADVPRHFKWQSLSIIRCHLKPFPKLSLPFLKSWTLTTNREDISFGQLALPSLRYLDLSRNAMSFRGCCSYSDFGTNNLKYLDLSFNGVILMSANFMGLEELEYLDFQHSTLKKVTEFSVFLSLEKLLYLDISYTNTKIDFDGIFLGLISLNTLKMAGNSFKDNTLSNVFTNTTNLTFLDLSKCQLEQISRGVFDTLYRLQLLNMSHNNLLFLDPSHYKQLYSLRTLDCSFNRIETSKGILQHFPKSLAVFNLTNNSVACICEYQNFLQWVKDQKMFLVNVEQMKCASPIDMKASLVLDFTNSTCYIYKTIISVSVVSVLVVATVAFLIYHFYFHLILIAGCKKYSRGESIYDAFVIYSSQNEDWVRNELVKNLEEGVPRFQLCLHYRDFIPGVAIAANIIQEGFHKSRKVIVVVSRHFIQSRWCIFEYEIAQTWQFLSSRSGIIFIVLEKVEKSLLRQQVELYRLLSRNTYLEWEDNALGRHIFWRRLKKALLDGKALNPDETSEEEQEATTLT
